Measurements from the supplement of paper PMC10849652.
Some of the results follow.

The chains behind the UniProt entries cited, without tags or fusion partners. Where a name states a change or a piece, a line headed by the entry shows the natural chain unless it says otherwise.
UniProt Q9UI14, whole entry, looked up: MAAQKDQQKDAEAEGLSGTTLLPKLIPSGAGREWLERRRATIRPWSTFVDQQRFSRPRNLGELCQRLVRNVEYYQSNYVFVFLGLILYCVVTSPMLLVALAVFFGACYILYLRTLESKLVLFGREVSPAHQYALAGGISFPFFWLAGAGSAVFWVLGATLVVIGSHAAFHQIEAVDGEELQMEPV
UniProt P11234: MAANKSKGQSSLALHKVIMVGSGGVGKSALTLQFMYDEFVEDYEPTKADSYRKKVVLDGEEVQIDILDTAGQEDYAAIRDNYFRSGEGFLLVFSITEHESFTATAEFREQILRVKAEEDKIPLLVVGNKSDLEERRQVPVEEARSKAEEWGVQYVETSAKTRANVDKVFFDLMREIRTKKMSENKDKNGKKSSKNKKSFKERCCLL
UniProt P61019: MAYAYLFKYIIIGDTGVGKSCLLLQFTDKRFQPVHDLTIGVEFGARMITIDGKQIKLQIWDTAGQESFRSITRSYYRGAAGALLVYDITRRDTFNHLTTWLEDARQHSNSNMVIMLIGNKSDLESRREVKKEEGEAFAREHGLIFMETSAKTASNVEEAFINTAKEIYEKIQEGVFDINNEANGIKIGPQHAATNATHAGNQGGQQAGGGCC
UniProt P20338: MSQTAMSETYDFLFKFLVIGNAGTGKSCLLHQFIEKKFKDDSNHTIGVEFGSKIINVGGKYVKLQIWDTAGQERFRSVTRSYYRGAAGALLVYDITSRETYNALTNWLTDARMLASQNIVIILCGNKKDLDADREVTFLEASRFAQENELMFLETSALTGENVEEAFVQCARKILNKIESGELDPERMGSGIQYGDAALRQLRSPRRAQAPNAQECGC
UniProt Q16576, whole entry, looked up: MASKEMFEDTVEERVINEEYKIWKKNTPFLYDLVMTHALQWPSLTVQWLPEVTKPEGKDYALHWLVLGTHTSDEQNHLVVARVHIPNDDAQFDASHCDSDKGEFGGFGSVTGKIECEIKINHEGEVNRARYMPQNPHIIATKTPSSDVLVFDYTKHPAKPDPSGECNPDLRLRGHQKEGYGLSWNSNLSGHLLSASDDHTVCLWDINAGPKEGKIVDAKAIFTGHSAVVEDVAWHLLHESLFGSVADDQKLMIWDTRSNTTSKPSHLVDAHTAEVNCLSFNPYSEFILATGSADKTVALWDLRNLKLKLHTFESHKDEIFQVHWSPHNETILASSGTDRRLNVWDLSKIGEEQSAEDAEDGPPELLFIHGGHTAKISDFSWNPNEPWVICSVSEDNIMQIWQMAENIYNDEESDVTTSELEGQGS
UniProt Q7Z6E9: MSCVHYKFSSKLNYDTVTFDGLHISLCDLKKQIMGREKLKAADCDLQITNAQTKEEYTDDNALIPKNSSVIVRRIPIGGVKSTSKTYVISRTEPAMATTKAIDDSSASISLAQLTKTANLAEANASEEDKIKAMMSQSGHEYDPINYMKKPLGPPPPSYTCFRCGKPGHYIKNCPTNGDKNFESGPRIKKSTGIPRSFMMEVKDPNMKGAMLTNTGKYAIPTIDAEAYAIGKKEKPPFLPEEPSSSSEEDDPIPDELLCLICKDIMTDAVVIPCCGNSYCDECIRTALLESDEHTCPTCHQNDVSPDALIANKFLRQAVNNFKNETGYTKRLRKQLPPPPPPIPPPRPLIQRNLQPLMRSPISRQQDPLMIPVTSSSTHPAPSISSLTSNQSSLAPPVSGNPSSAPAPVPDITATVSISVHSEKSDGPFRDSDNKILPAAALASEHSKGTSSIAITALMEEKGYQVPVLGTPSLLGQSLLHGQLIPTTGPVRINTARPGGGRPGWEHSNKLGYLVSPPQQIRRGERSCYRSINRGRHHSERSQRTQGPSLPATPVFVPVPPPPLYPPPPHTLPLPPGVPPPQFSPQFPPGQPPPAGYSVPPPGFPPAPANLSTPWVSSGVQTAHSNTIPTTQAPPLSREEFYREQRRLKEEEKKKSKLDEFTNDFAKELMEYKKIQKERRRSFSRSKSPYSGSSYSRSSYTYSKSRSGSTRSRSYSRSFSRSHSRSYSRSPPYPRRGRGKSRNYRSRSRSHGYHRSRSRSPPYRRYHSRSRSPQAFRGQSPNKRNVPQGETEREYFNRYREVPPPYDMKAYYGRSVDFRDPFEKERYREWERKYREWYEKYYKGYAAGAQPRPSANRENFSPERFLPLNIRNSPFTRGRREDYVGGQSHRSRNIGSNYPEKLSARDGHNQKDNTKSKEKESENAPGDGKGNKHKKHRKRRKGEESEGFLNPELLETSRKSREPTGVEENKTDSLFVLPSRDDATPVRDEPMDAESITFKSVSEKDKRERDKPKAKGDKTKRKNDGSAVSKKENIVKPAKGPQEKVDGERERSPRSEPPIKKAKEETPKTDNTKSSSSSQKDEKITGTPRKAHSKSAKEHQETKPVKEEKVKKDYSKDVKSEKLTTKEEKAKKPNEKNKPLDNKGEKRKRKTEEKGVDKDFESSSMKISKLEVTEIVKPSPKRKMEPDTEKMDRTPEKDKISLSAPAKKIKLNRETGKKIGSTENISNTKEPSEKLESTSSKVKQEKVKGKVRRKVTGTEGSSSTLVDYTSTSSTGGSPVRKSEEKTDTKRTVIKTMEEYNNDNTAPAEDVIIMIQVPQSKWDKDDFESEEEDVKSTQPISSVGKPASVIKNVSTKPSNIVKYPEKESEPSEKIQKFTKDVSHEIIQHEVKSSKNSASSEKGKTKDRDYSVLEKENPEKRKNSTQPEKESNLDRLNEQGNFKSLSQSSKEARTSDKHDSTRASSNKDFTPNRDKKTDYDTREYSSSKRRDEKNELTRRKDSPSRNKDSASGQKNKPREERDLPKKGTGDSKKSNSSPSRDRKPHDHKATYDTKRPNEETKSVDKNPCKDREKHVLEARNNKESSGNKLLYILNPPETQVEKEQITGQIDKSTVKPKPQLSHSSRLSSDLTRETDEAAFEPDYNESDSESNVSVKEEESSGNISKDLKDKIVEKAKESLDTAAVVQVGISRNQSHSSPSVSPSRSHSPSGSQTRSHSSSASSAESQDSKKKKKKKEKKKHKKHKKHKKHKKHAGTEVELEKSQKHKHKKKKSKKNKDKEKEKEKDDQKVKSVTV
UniProt P98175: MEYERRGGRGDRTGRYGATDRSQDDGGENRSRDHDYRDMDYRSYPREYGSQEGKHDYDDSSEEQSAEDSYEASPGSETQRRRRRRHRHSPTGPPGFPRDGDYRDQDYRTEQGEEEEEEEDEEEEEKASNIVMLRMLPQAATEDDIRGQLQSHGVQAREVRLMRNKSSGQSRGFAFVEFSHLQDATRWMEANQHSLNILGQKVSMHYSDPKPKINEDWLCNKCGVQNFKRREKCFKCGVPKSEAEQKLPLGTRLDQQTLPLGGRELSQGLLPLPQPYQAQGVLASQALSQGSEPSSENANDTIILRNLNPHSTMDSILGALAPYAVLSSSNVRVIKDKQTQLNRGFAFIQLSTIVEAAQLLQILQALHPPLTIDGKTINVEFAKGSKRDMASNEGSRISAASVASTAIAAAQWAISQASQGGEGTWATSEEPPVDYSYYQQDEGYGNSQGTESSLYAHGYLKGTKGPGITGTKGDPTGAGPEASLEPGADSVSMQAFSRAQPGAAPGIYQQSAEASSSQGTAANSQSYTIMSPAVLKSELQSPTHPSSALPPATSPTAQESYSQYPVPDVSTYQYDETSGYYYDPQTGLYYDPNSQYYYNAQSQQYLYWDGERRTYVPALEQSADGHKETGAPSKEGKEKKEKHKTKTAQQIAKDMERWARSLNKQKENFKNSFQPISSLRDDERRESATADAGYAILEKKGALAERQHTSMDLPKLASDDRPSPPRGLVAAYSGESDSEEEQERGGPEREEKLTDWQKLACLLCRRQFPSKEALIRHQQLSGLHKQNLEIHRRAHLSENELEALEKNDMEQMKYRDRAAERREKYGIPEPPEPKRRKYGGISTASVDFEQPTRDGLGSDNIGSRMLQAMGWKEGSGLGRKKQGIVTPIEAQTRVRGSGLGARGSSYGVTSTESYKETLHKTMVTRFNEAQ
UniProt P62820, whole entry, looked up: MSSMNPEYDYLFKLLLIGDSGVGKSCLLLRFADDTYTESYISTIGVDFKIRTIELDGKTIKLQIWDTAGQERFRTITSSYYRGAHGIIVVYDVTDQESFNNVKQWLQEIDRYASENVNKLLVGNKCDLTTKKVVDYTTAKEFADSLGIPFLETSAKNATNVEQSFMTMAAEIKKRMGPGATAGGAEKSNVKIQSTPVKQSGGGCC
UniProt Q92878: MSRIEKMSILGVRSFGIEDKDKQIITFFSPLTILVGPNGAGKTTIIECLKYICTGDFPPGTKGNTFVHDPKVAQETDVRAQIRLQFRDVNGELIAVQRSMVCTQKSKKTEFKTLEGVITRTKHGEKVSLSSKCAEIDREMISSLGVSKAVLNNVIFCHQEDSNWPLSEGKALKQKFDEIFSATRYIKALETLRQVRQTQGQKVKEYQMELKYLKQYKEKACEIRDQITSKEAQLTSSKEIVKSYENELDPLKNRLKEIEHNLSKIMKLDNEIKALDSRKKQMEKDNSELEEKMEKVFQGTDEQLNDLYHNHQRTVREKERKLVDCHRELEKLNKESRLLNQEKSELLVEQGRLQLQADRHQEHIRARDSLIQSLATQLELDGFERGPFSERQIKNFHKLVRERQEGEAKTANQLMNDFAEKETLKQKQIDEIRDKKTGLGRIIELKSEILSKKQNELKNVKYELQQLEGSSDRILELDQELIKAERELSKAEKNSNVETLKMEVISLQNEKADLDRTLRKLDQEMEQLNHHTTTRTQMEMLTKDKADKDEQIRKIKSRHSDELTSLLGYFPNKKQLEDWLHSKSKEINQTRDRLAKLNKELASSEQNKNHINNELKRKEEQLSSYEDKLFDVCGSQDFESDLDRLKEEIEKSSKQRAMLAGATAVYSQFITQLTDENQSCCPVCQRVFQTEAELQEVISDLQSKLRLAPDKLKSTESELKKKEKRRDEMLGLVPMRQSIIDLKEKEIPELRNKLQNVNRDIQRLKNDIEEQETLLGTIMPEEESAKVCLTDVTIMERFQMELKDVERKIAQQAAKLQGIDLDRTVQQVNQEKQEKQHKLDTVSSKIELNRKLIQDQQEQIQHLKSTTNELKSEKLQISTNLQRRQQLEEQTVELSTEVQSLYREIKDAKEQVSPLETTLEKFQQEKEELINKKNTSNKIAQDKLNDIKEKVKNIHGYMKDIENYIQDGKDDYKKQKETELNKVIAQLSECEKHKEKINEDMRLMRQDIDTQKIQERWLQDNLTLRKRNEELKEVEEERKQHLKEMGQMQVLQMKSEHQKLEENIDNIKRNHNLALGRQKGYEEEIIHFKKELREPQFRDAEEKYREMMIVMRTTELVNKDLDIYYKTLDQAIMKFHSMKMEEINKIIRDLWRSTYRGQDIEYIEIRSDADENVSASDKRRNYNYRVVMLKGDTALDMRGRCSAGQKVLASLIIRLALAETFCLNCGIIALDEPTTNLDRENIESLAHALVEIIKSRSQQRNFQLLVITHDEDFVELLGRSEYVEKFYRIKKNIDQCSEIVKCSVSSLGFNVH
UniProt O60216: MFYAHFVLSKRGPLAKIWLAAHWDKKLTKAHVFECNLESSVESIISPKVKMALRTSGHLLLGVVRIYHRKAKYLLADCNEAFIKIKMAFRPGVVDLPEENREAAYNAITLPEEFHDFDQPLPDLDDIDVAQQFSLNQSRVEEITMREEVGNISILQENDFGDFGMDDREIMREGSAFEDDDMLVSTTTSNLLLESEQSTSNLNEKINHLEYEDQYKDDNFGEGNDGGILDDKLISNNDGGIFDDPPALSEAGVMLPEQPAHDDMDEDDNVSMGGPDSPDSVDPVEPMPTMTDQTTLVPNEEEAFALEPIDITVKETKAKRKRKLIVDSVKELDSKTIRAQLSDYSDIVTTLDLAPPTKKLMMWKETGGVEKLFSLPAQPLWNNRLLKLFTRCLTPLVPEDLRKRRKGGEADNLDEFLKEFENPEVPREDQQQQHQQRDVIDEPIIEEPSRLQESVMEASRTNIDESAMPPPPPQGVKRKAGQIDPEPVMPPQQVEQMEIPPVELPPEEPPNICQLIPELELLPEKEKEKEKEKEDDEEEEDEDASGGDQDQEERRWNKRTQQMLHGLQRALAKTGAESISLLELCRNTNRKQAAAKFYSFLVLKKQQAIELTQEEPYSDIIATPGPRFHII
UniProt Q9UL26: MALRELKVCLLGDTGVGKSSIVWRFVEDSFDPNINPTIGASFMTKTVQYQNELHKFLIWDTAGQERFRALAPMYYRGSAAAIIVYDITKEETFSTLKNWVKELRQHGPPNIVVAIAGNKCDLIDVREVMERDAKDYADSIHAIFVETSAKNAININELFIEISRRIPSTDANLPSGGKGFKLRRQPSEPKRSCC
UniProt P61106, whole entry, looked up: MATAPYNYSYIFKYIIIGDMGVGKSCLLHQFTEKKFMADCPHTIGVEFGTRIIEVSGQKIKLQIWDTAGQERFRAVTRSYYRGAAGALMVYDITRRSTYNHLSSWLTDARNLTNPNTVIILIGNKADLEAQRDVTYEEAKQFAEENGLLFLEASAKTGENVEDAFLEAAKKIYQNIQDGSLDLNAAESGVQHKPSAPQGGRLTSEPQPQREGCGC

Tests used:
Assay in all cases: log2 fold change, soluble protein after heating vs DMSO (PISA); higher = thermal stabilisation; K562 cells, 10 uM, 30 min; active = over 0.2 and 3.5 SD of the protein, either way, in both replicates (recomputed)
[1] = compound: NC(=O)Nc1cc(-c2cccc(F)c2)sc1C(=O)N[C@H]1CCCNC1
Summary of the method: (§1)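 Soluble protein was quantified by TMTpro 16plex LC-MS/MS after channel sums were equalised. It was obtained as the supernatant after 21,000xg for 90 min from pooled aliquots of K562 cells (2×10^6 cells/mL, 10 μM compound, 30 min) heated for 3 min across 48°C-58°C and extracted in PBS with 0.5% NP-40 at 4°C. Thermal stability values are relative to control samples and come from duplicates. They are given as log2 fold changes.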

[2] = compound: NC(=O)c1cnc(N[C@@H]2CCCC[C@@H]2N)nc1Nc1cccc(-n2nccn2)c1
Summary of the method: as §1

[3] = compound: NC1(c2ccc(-c3nc4ccn5c(=O)[nH]nc5c4cc3-c3ccccc3)cc2)CCC1
Summary of the method: as §1

[4] = compound: NCC(=O)Nc1ccc(-n2nc(C(F)(F)F)cc2-c2ccc3c(ccc4ccccc43)c2)cc1
Summary of the method: as §1

entinostat = compound: Nc1ccccc1NC(=O)c1ccc(CNC(=O)OCc2cccnc2)cc1 [entinostat]
Summary of the method: as §1

vorinostat = compound: O=C(CCCCCCC(=O)Nc1ccccc1)NO [vorinostat]
Summary of the method: as §1

citarinostat = compound: O=C(CCCCCCNC(=O)c1cnc(N(c2ccccc2)c2ccccc2Cl)nc1)NO [citarinostat]
Summary of the method: as §1

silmitasertib = compound: O=C(O)c1ccc2c(c1)nc(Nc1cccc(Cl)c1)c1ccncc12 [silmitasertib]
Summary of the method: as §1

[5] = compound: O=C1NC(=O)C(c2cnc3ccccn23)=C1c1cn2c3c(cc(F)cc13)CN(C(=O)N1CCCCC1)CC2
Summary of the method: as §1

[6] = compound: c1cc(OCCN2CCCCC2)cc(-c2n[nH]c3ccc(-c4nnc[nH]4)cc23)c1
Summary of the method: as §1

Measured: log2 fold change

RANBP2 (UniProt P49792)
inactive: [1] 0.063 | [2] -0.05 | [3] 0.01 | [4] 0.005 | entinostat 0.009 | vorinostat -0.034 | citarinostat -0.037 | silmitasertib 0.001 | [5] -0.049 | [6] 0.019

RBM12 (UniProt Q9NTZ6)
inactive: [1] -0.044 | [2] -0.062 | [3] -0.219 | [4] -0.106 | entinostat 0.133 | vorinostat 0.128 | citarinostat 0.107 | silmitasertib -0.026 | [5] -0.219 | [6] -0.002

RALY (UniProt Q9UKM9)
inactive: [1] -0.039 | [2] 0.071 | [3] 0.353 | [4] 0.026 | entinostat -0.02 | vorinostat -0.105 | citarinostat -0.064 | silmitasertib 0.128 | [5] 0.072 | [6] -0.106

RAD51 (UniProt Q06609)
inactive: [1] 0.051 | [2] -0.019 | [3] -0.057 | [4] 0.031 | entinostat 0.001 | vorinostat 0.047 | citarinostat 0.018 | silmitasertib -0.003 | [5] -0.014 | [6] -0.012

RABGAP1L isoform 3 (UniProt Q5R372)
inactive: [1] -0.012 | [2] -0.012 | [3] -0.05 | [4] 0.036 | entinostat 0.016 | vorinostat 0.025 | citarinostat 0.06 | silmitasertib 0.019 | [5] 0.073 | [6] -0.011

RARS (UniProt P54136)
inactive: [1] 0.098 | [2] -0.076 | [3] 0.032 | [4] -0.01 | entinostat 0.041 | vorinostat 0.115 | citarinostat 0.028 | silmitasertib 0.107 | [5] 0.325 | [6] -0.135

RABAC1 (UniProt Q9UI14)
inactive: [1] 0.061 | [2] 0.033 | [3] 0.052 | [4] 0.029 | entinostat 0.019 | vorinostat 0.206 | citarinostat 0.021 | silmitasertib 0.004 | [5] 0 | [6] -0.017

RALB isoform 2 (UniProt P11234)
inactive: [1] -0.053 | [2] 0.012 | [3] 0.051 | [4] 0.021 | entinostat -0.039 | vorinostat -0.117 | citarinostat 0.039 | silmitasertib -0.058 | [5] -0.04 | [6] -0.016

RAB2A (UniProt P61019)
inactive: [1] -0.032 | [2] -0.03 | [3] -0.045 | [4] -0.014 | entinostat 0.011 | vorinostat -0.018 | citarinostat -0.02 | silmitasertib 0.002 | [5] -0.007 | [6] 0.035

RACGAP1 (UniProt Q9H0H5)
inactive: [1] -0.005 | [2] -0.105 | [3] -0.033 | [4] -0.106 | entinostat 0.101 | vorinostat 0.109 | citarinostat -0.036 | silmitasertib 0.004 | [5] 0.108 | [6] -0.142

RAB4A (UniProt P20338)
inactive: [1] -0.039 | [2] -0.037 | [3] -0.025 | [4] 0.032 | entinostat -0.065 | vorinostat -0.021 | citarinostat 0.029 | silmitasertib -0.025 | [5] -0.009 | [6] -0.069

RABGAP1 (UniProt Q9Y3P9)
inactive: [1] 0.014 | [2] -0.013 | [3] -0.081 | [4] -0.014 | entinostat -0.005 | vorinostat 0.018 | citarinostat 0.012 | silmitasertib 0.089 | [5] -0.022 | [6] -0.07

RBBP7 isoform 2 (UniProt Q16576)
inactive: [1] -0.015 | [2] -0.02 | [3] -0.017 | [4] -0.014 | entinostat 0.018 | vorinostat -0.011 | citarinostat 0.005 | silmitasertib 0.005 | [5] -0.009 | [6] -0.009

RACK1 (UniProt P63244)
inactive: [1] 0.008 | [2] 0.056 | [3] -0.059 | [4] -0.014 | entinostat -0.003 | vorinostat 0.017 | citarinostat 0.064 | silmitasertib -0.077 | [5] -0.03 | [6] -0.027

RAD1 (UniProt O60671)
inactive: [1] 0.004 | [2] -0.06 | [3] -0.083 | [4] 0.047 | entinostat 0.045 | vorinostat 0.06 | citarinostat 0 | silmitasertib -0.002 | [5] -0.116 | [6] -0.085

RBBP6 (UniProt Q7Z6E9)
inactive: [1] 0.028 | [2] -0.107 | [3] 0.089 | [4] -0.017 | entinostat -0.011 | vorinostat 0.081 | citarinostat 0.099 | silmitasertib 0.207 | [5] 0.112 | [6] -0.013

RBM10 isoform 5 (UniProt P98175)
inactive: [1] 0.106 | [2] 0.047 | [3] 0.156 | [4] 0.066 | entinostat -0.039 | vorinostat 0.02 | citarinostat 0.035 | silmitasertib -0.023 | [5] 0.044 | [6] -0.107

RAB1A (UniProt P62820)
inactive: [1] 0.026 | [2] 0.012 | [3] 0.011 | [4] 0.028 | entinostat 0 | vorinostat -0.045 | citarinostat -0.028 | silmitasertib -0.031 | [5] -0.024 | [6] -0.023

RAD50 isoform 2 (UniProt Q92878)
inactive: [1] -0.011 | [2] -0.042 | [3] -0.057 | [4] -0.064 | entinostat 0.038 | vorinostat -0.014 | citarinostat 0.047 | silmitasertib -0.008 | [5] -0.034 | [6] 0.009

RAD21 (UniProt O60216)
inactive: [1] -0.043 | [2] -0.001 | [3] -0.02 | [4] -0.018 | entinostat 0.001 | vorinostat 0.069 | citarinostat 0.056 | silmitasertib 0.003 | [5] -0.049 | [6] -0.093

RABGGTB (UniProt P53611)
inactive: [1] -0.053 | [2] 0.032 | [3] 0.115 | [4] -0.017 | entinostat -0.009 | vorinostat 0.088 | citarinostat 0.058 | silmitasertib -0.023 | [5] -0.016 | [6] -0.049

RAB12, A0A3B3ITT1
inactive: [1] -0.038 | [2] -0.04 | [3] -0.051 | [4] 0.009 | entinostat -0.017 | vorinostat -0.021 | citarinostat 0.074 | silmitasertib 0.021 | [5] -0.024 | [6] -0.037

RAB22A (UniProt Q9UL26)
inactive: [1] 0.018 | [2] 0.004 | [3] -0.009 | [4] -0.006 | entinostat -0.025 | vorinostat -0.062 | citarinostat 0.008 | silmitasertib 0.037 | [5] -0.072 | [6] -0.004

RAB5IF isoform 5 (UniProt Q9BUV8)
inactive: [1] 0.008 | [2] 0.103 | [3] 0.003 | [4] -0.107 | entinostat 0.007 | vorinostat -0.019 | citarinostat 0.225 | silmitasertib -0.032 | [5] 0.168 | [6] 0.047

RBM25 (UniProt P49756)
inactive: [1] 0 | [2] 0.007 | [3] -0.058 | [4] -0.025 | entinostat 0.031 | vorinostat 0.067 | citarinostat 0.015 | silmitasertib 0.019 | [5] 0.005 | [6] -0.053

RAP1GDS1 isoform 5 (UniProt P52306)
inactive: [1] -0.059 | [2] -0.069 | [3] -0.181 | [4] -0.117 | entinostat 0.027 | vorinostat 0.119 | citarinostat 0.2 | silmitasertib 0.087 | [5] -0.049 | [6] -0.002

RAD23B (UniProt P54727)
inactive: [1] 0.015 | [2] 0.001 | [3] 0.014 | [4] 0.003 | entinostat -0.018 | vorinostat -0.031 | citarinostat -0.02 | silmitasertib -0.002 | [5] -0.018 | [6] -0.01

RAB14 (UniProt P61106)
inactive: [1] 0.002 | [2] -0.024 | [3] -0.003 | [4] -0.012 | entinostat -0.009 | vorinostat -0.044 | citarinostat 0.033 | silmitasertib 0.005 | [5] -0.011 | [6] -0.005

RAD23A (UniProt P54725)
inactive: [1] -0.021 | [2] -0.034 | [3] 0.007 | [4] 0.009 | entinostat -0.017 | vorinostat -0.016 | citarinostat 0.025 | silmitasertib -0.002 | [5] -0.076 | [6] -0.001
